Measured values published in US20130078247A1.
These are yes or no findings as the source states them, for the method shown. Some binding calls cover weakened binding; strength is not graded here.

By UniProt entry, the sequences of proteins in these tests, tags left out. Where a name states a change or a piece, a line headed by the entry shows the natural chain unless it says otherwise. Residues count along the entry.
UniProt Q9JI71, residues 27-686: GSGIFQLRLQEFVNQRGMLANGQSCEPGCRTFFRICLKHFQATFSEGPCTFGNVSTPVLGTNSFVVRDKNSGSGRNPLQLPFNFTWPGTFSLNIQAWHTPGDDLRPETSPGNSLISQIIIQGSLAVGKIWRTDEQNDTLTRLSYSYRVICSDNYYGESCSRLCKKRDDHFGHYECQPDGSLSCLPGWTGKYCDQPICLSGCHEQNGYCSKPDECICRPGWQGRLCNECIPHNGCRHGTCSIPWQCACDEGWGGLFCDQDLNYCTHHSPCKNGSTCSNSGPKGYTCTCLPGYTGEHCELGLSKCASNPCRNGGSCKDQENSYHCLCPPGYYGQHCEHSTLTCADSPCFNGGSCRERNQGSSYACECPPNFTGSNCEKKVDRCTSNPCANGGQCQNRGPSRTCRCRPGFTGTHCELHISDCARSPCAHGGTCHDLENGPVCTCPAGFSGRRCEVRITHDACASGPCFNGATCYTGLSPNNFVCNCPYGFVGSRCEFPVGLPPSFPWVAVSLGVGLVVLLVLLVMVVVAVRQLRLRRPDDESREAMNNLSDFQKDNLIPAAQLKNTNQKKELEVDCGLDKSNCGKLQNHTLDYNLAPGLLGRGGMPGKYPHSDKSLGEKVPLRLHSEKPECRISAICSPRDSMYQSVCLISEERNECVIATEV
UniProt P46531, residues 19-526: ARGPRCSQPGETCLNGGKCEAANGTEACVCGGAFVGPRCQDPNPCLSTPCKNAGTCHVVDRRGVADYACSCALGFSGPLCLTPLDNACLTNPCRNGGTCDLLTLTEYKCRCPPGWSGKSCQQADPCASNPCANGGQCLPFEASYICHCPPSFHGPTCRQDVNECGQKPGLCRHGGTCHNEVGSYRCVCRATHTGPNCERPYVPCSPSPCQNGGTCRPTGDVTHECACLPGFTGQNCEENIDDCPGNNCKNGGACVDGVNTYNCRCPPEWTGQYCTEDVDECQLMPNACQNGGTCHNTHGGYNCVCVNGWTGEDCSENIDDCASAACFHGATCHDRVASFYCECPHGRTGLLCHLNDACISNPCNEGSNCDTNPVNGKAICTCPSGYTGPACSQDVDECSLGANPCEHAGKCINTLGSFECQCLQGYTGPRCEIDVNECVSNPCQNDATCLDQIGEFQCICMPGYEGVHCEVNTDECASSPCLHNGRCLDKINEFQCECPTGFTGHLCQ

Molecular target: mouse DLL4, full length, overexpressed on CHO or HEK293 cells (mouse) (UniProt Q9JI71)
Assay: FMAT competition: unlabelled rhNotch1-Fc against labelled hNotch1-Fc on CHO-mDLL4 cells

- binding: binds
Substance: recombinant human Notch1/Fc chimera (R&D Systems) (from UniProt P46531 19-526) (Fc fusion)
